In article doi:10.1101/2024.11.13.623519:
Read-outs that look alike come from different tables or passages of the source. No constants are given. Whether binding was seen depends on the method and setting.

Columns and labels:
[1] = target: human taurine transporter (TauT), full-length wild type (human) (UniProt P31641); experiment: cryo-EM structure
[2] = target: human taurine transporter (TauT), full-length wild type (human) (UniProt P31641); experiment: cryo-EM structure; remark: listed apart in the source

B1: human taurine transporter (TauT), full-length wild type (protein, UniProt P31641 1-620)
chain: MATKEKLQCLKDFHKDILKPSPGKSPGTRPEDEAEGKPPQREKWSSKIDFVLSVAGGFVGLGNVWRFPYLCYKNGGGAFLIPYFIFLFGSGLPVFFLEIIIGQYTSEGGITCWEKICPLFSGIGYASVVIVSLLNVYYIVILAWATYYLFQSFQKELPWAHCNHSWNTPHCMEDTMRKNKSVWITISSTNFTSPVIEFWERNVLSLSPGIDHPGSLKWDLALCLLLVWLVCFFCIWKGVRSTGKVVYFTATFPFAMLLVLLVRGLTLPGAGAGIKFYLYPDITRLEDPQVWIDAGTQIFFSYAICLGAMTSLGSYNKYKYNSYRDCMLLGCLNSGTSFVSGFAIFSILGFMAQEQGVDIADVAESGPGLAFIAYPKAVTMMPLPTFWSILFFIMLLLLGLDSQFVEVEGQITSLVDLYPSFLRKGYRREIFIAFVCSISYLLGLTMVTEGGMYVFQLFDYYAASGVCLLWVAFFECFVIAWIYGGDNLYDGIEDMIGYRPGPWMKYSWAVITPVLCVGCFIFSLVKYVPLTYNKTYVYPNWAIGLGWSLALSSMLCVPLVIVIRLCQTEGPFLVRVKYLLTPREPNRWAVEREGATPYNSRTVMNGALVKPTHIIVETMM
binding [1]: no binding (tested: 1.2 mg/mL) | binding [2]: no binding (tested: 22.0 mg/mL)
